{
  "source": "paper PMC11734750",
  "about": "“Using environment-sensitive tetramethylated thiophene-BODIPY fluorophores in DNA probes for studying effector-induced conformational changes of protein–DNA complexes” (RSC Chemical Biology, 2025)",
  "tested_on": "LutR-DBD (Bacillus subtilis)",
  "assay": "EMSA",
  "conditions": "dose-dependent shift; EMSA: 50 mM Tris-HCl, 0.1% Triton X-100, pH 7.6 buffer (2 of 6 ul) plus KCl (500 mM stock, 1 ul) and LutR storage buffer (250 mM NaCl, 20 mM Tris-HCl pH 7.5, 5 mM DTT); recombinant protein",
  "note": "The exact form of at least one protein or probe is not confirmed.",
  "data": [
    {"sequence": "GGTCATCAGATGACC (double strand) [15-bp LutR operator DNA]", "values": [
      {"measurement": "binding result", "result": "binds"}
    ]}
  ]
}
